The other results are listed elsewhere or left out. Shown are side measurements of this screen, not its main read-out; they come without a call. The list favours compounds with an active or inconclusive main result. Words in brackets tell the shape of the fitted curve; partial curves, single points and poor fits give uncertain potencies.
Experiment: qHTS Assay to Find Inhibitors of Chronic Active B-Cell Receptor Signaling
Details: ABC-DLBCL IkBa-CBG/CBR reporter, luminescence ratio (green luciferase fused to IkBa over red control in TMD8 lymphoma cells), 4 h
In short: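 Compounds up to 46 uM were incubated four hours with TMD8 cells whose green CBG68 luciferase is fused to IkappaBalpha; red CBR luminescence normalised the signal, and concentration-effect curves were fitted to fusion, red and ratio data.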

[1] = measured here: CBR red luminescence, cell number
[2] = measured here: IkBa-CBG green luminescence

Row | Compound | AC50 [1] | AC50 [2]
1 | CCNc1nc(NCC)nc(N/N=C/c2ccc(O)c(OC)c2)n1 | 7.94 µM [falling, partial curve, poor fit] | 
2 | Cc1ncc(CO)c2c1Oc1nc(-c3ccccc3)nc(SCC(=O)N3CCOCC3)c1C2 |  | 14.1 µM [falling, partial curve, poor fit]
3 | O=C(O)C(=O)/C(=C\c1ccccc1)c1ccc2ccccc2n1 | 3.26 µM [rising, partial curve, poor fit] | 
4 | CC(C)(C)[C@@H]1C=C(C(=O)N2CCN(Cc3ccccc3)CC2)O[C@H](OCc2ccc(CO)cc2)C1 | 5.62 µM [rising, single point] | 
5 | COC(=O)c1onc(-c2c(OC)cc(OC)cc2OC)c1C(=O)OC | 29.1 µM [rising, single point] | 
6 | Cc1c(N=C2N=C(NC(=O)NC(C)(C)C)c3ccccc32)c(=O)n(-c2ccccc2)n1C | 3.16 µM [rising, full curve] | 
7 | N=c1c(S(=O)(=O)c2ccccc2)cc2c(=O)n3ccccc3nc2n1Cc1cccnc1 | 1.16 µM [falling, full curve, poor fit] | 
8 | O=C(O)CCN1C(=O)/C(=C\c2ccncc2)SC1=S | 1 µM [falling, full curve] | 
9 | CCOC(=O)c1c(C)[nH]c(O)c1C=Nc1ccc(C(F)(F)F)cc1 | 0.891 µM [rising, full curve, poor fit] | 
10 | CC1=N/C(=C\c2ccc([N+](=O)[O-])cc2)C(=O)N1c1ccc(F)cc1F | 11.2 µM [falling, partial curve] | 
11 | Nc1nonc1-c1nc2ccccc2n1Cc1ccccc1 | 5.8 µM [rising, full curve, poor fit] | 
12 | CC(C)CN(Cc1cc(=O)oc2cc(-c3ccccc3)c(O)cc12)CC(C)C | 11.2 µM [falling, single point] | 
13 | O=C(CSc1nnc(Cn2nnc3ccccc32)o1)N(Cc1ccc(Cl)cc1)c1ccccc1 | 23.1 µM [falling, partial curve] | 
14 | COc1cccc(N(CC(=O)NC2CCCC2)C(=O)Cn2nnc(-c3ccc(C)cc3)n2)c1 | 8.2 µM [falling, partial curve, poor fit] | 
15 | CC1(C)N=C(c2cccc(F)c2)C(=O)N1 | 20 µM [rising, partial curve, poor fit] | 
16 | S=C(NCc1cccs1)Nc1cccc(Cl)c1 | 0.103 µM [rising, full curve, poor fit] | 
17 | COc1ccc(OC)c(NC(=O)c2cc(-c3cc(C)c(C)cc3O)n[nH]2)c1 | 6.31 µM [falling, partial curve, poor fit] | 
18 | N#Cc1ccc(Sc2nc3ccccc3[nH]2)cc1C#N | 35.5 µM [falling, single point] | 
19 | Cc1ccc(C(=O)NCC(=O)OCC(=O)Nc2ncc(C(F)(F)F)cc2Cl)cc1 | 1.64 µM [falling, partial curve, poor fit] | 
20 | CC(=O)Nc1ccc(-c2nc(C)c(C(C)=O)n2O)cc1 | 9.2 µM [falling, partial curve] | 
21 | CCc1cc2c(-c3ccccc3)cc(=O)oc2cc1OCC(C)=O | 6.31 µM [rising, partial curve, poor fit] | 
22 | Cc1cc(OC(=O)c2ccccc2Br)cc(=O)n1C | 7.94 µM [falling, partial curve] | 

Row | Compound | AC50 [1] | AC50 [2]
23 | COc1cc(CNCc2ccccn2)ccc1OCc1cccc(Cl)c1 | 5.62 µM [rising, single point] | 
24 | OCc1nc2ccccc2n1CC(O)Cn1ccc2ccccc21 (stereo unspecified) | 0.461 µM [falling, partial curve, poor fit] | 
25 | O=C(OCn1ncc(Br)c(Br)c1=O)c1ccc(F)cc1 | 5.17 µM [falling, full curve, poor fit] | 5.17 µM [rising, full curve, poor fit]
26 | CCOC(=O)N1CCc2c(sc(NCc3cccc(F)c3)c2C(=O)Nc2ccc(OC)cc2)C1 | 7.08 µM [falling, full curve, poor fit] | 
27 | COc1ccc(-n2cc(-c3ccccc3)nc2SCC(=O)Nc2ccccc2C)cc1 | 3.55 µM [rising, full curve, poor fit] | 
28 | Cc1ccccc1OCCOc1ccccc1C=C(C#N)C#N |  | 23.1 µM [falling, single point]
29 | COc1ccc(NC(=O)Nc2cccs2)cc1OC | 10.3 µM [rising, partial curve] | 
30 | CC(=O)c1ccc(NC(=O)COC(=O)c2ccccc2Sc2ccccc2C#N)cc1 | 23.1 µM [rising, partial curve, poor fit] | 
31 | CC1CN(CCS(=O)(=O)c2cc(Cl)ccc2Cl)CC(C)O1 (stereo unspecified) | 35.5 µM [rising, single point] | 35.5 µM [falling, single point]
32 | COc1cccc(Cn2c(Oc3cccc(C)c3)nc3c2c(=O)n(C)c(=O)n3C)c1 | 16.4 µM [rising, single point] | 
33 | CC(C)(C)n1cnc2cc(NS(=O)(=O)c3ccc(Br)cc3)ccc21 | 1.84 µM [falling, partial curve, poor fit] | 
34 | NC(=O)c1nc[nH]c1C(=O)Nc1cccc(C(F)(F)F)c1 | 0.092 µM [rising, full curve, poor fit] | 
35 | O=C1NC(=S)S/C1=C\c1ccc(SCc2ccco2)o1 | 0.58 µM [rising, partial curve, poor fit] | 
36 | COc1ccc(-c2nc(N)ncc2-c2ccc(OC)c(OC)c2)c(O)c1 | 35.5 µM [falling, single point] | 
37 | COc1ccc(/C=C/C(=O)Nc2cccc(S(=O)(=O)NC3=NCCCCC3)c2)c(OC)c1 | 25.9 µM [falling, single point] | 
38 | c1ccc(Cn2cc(CNc3ccccc3)nn2)cc1 | 2.51 µM [rising, full curve, poor fit] | 
39 | O=C(c1nc2ccc(Cl)cn2c1CN1CCC[C@H]1CO)N1CCCCCCC1 | 3.55 µM [rising, partial curve, poor fit] | 
40 | CCC1C(O)=C(c2ccccn2)C(=N)N1c1ccccc1 (stereo unspecified) | 1.58 µM [falling, full curve] | 
41 | COc1cc(SC)ccc1C(=O)OC(C)C(=O)NC1CCCC1 (stereo unspecified) | 35.5 µM [falling, partial curve, poor fit] | 
42 | Cc1cc(=O)oc2cc(NC(=S)NCc3cccnc3)ccc12 | 2 µM [rising, full curve, poor fit] | 
43 | CC(=O)N[C@@H](Cc1c[nH]c2ccccc12)C(=O)OCC(=O)NCc1ccc2c(c1)OCO2 | 35.5 µM [rising, single point] | 
44 | CS(=O)(=O)Cc1cccc(C(=O)NC2CCSc3ccccc32)c1 (stereo unspecified) | 7.94 µM [falling, partial curve, poor fit] | 

Row | Compound | AC50 [1] | AC50 [2]
45 | N#C/C(=C\c1c(N2CCOCC2)nc2ccccn2c1=O)S(=O)(=O)c1ccccc1 | 6.31 µM [falling, full curve, poor fit] | 
46 | COc1cccc2[nH]c3c(Cl)ncnc3c12 |  | 4.11 µM [rising, full curve]
47 | CCOC(=O)c1c(NC(=O)c2ccccc2C)sc2c1CC(C)(C)OC2 | 0.00461 µM [rising, full curve, poor fit] | 
48 | O=C(COC(=O)C1CC1)Nc1nc(-c2ccc(F)c(F)c2)cs1 | 9.2 µM [rising, partial curve, poor fit] | 
49 | CCOC(=O)c1c(C)[nH]c(C)c1C(=O)CSc1nc2ccccc2c(=O)n1-c1ccc(Cl)cc1 | 32.6 µM [falling, partial curve, poor fit] | 
50 | O=C(N/N=C/c1ccc[nH]1)c1ccccc1[N+](=O)[O-] | 20.6 µM [falling, partial curve, poor fit] | 
51 | COc1ccccc1NC(=O)NCCc1ccccc1 | 35.5 µM [falling, single point] | 
52 | CCc1n[nH]c(=S)n1/N=C/c1cccc2ccccc12 | 10 µM [rising, partial curve, poor fit] | 
53 | CCCCN(CC(=O)NC(C)(C)C)C(=O)C(=O)Nc1ccc2c(c1)OCCO2 | 25.1 µM [falling, single point] | 
54 | C=CCn1c(-c2csc(-c3ccc(OC)c(OC)c3)n2)n[nH]c1=S | 3.16 µM [rising, full curve] | 
55 | O=C(Nc1ccc(-c2nc3ccccc3o2)cc1)c1cc(-n2cnnc2)ccc1Cl | 0.731 µM [rising, full curve, poor fit] | 
56 | O=C(NC(=S)NCCc1ccccc1)C1CCCCC1 | 0.146 µM [rising, full curve, poor fit] | 
57 | CN1CCSc2ccc(C(=O)Nc3cc(F)ccc3F)cc21 | 11.2 µM [falling, partial curve] | 
58 | CCOC(=O)N1CCN(S(=O)(=O)c2ccc(OC)c(Cl)c2)CC1 | 4.11 µM [falling, single point] | 
59 | COc1ccc(C(=O)Nc2ccccc2C(=O)NCC2CCCO2)cc1 (stereo unspecified) | 35.5 µM [rising, single point] | 
60 | COC(=O)c1ccc2[nH]c3c(c2c1)CC(C)CC3 (stereo unspecified) | 14.1 µM [rising, partial curve] | 
61 | COc1ccc(C(=O)CSc2nc3c(c(=O)n(C)c(=O)n3C)n2C)cc1 | 22.4 µM [rising, single point] | 
62 | CCOC(=O)c1oc2ccccc2c1NC(=O)C1CCCCC1 | 4.61 µM [rising, single point] | 
63 | FC(F)(F)c1nnc2ccc(NCc3ccccc3)nn12 | 12.6 µM [falling, partial curve, poor fit] | 
64 | CCOC(=O)CSc1nnc(CNC(=O)c2cccs2)n1-c1cc(OC)ccc1OC | 0.731 µM [rising, partial curve, poor fit] | 

Exported in CSV form: part of the list above
Row,Compound,AC50 [1],AC50 [2]
44,CS(=O)(=O)Cc1cccc(C(=O)NC2CCSc3ccccc32)c1 (stereo unspecified),"7.94 µM [falling, partial curve, poor fit]",
45,N#C/C(=C\c1c(N2CCOCC2)nc2ccccn2c1=O)S(=O)(=O)c1ccccc1,"6.31 µM [falling, full curve, poor fit]",
46,COc1cccc2[nH]c3c(Cl)ncnc3c12,,"4.11 µM [rising, full curve]"
47,CCOC(=O)c1c(NC(=O)c2ccccc2C)sc2c1CC(C)(C)OC2,"0.00461 µM [rising, full curve, poor fit]",
49,CCOC(=O)c1c(C)[nH]c(C)c1C(=O)CSc1nc2ccccc2c(=O)n1-c1ccc(Cl)cc1,"32.6 µM [falling, partial curve, poor fit]",
50,O=C(N/N=C/c1ccc[nH]1)c1ccccc1[N+](=O)[O-],"20.6 µM [falling, partial curve, poor fit]",
51,COc1ccccc1NC(=O)NCCc1ccccc1,"35.5 µM [falling, single point]",
52,CCc1n[nH]c(=S)n1/N=C/c1cccc2ccccc12,"10 µM [rising, partial curve, poor fit]",
54,C=CCn1c(-c2csc(-c3ccc(OC)c(OC)c3)n2)n[nH]c1=S,"3.16 µM [rising, full curve]",
55,O=C(Nc1ccc(-c2nc3ccccc3o2)cc1)c1cc(-n2cnnc2)ccc1Cl,"0.731 µM [rising, full curve, poor fit]",
56,O=C(NC(=S)NCCc1ccccc1)C1CCCCC1,"0.146 µM [rising, full curve, poor fit]",
57,CN1CCSc2ccc(C(=O)Nc3cc(F)ccc3F)cc21,"11.2 µM [falling, partial curve]",
58,CCOC(=O)N1CCN(S(=O)(=O)c2ccc(OC)c(Cl)c2)CC1,"4.11 µM [falling, single point]",
59,COc1ccc(C(=O)Nc2ccccc2C(=O)NCC2CCCO2)cc1 (stereo unspecified),"35.5 µM [rising, single point]",
61,COc1ccc(C(=O)CSc2nc3c(c(=O)n(C)c(=O)n3C)n2C)cc1,"22.4 µM [rising, single point]",
62,CCOC(=O)c1oc2ccccc2c1NC(=O)C1CCCCC1,"4.61 µM [rising, single point]",
63,FC(F)(F)c1nnc2ccc(NCc3ccccc3)nn12,"12.6 µM [falling, partial curve, poor fit]",
64,CCOC(=O)CSc1nnc(CNC(=O)c2cccs2)n1-c1cc(OC)ccc1OC,"0.731 µM [rising, partial curve, poor fit]",

Reference: PubChem BioAssay AID493014 (National Center for Advancing Translational Sciences (NCATS), 2011)
